The values that follow come from patent US9920035B2, “Heterocyclic compounds, medicaments containing said compounds, use thereof and processes for the preparation thereof” (Boehringer Ingelheim International GmbH, priority 2011, dated 2018).

Amino acid sequences for entries named in this document (tags omitted).
UniProt Q61180, whole entry: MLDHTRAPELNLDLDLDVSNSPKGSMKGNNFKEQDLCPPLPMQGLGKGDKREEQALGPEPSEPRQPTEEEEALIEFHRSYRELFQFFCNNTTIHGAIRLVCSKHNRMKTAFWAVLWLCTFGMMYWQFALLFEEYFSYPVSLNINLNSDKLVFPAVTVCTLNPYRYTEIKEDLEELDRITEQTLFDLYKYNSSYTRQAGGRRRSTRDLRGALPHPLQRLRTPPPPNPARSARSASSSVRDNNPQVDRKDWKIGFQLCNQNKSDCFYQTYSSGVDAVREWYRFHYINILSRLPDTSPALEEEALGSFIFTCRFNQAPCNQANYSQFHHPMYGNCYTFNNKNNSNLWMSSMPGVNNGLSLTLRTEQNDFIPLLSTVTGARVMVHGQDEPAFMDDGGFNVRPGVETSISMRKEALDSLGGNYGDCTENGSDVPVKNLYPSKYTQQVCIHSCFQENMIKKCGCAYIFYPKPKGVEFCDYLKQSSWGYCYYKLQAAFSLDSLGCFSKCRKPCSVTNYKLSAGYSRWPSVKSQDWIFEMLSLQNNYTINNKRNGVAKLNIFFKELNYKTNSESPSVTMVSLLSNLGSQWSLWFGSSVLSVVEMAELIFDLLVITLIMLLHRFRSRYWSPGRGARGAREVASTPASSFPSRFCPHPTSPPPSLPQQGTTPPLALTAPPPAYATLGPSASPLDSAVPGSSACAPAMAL
UniProt Q9WU38, whole entry: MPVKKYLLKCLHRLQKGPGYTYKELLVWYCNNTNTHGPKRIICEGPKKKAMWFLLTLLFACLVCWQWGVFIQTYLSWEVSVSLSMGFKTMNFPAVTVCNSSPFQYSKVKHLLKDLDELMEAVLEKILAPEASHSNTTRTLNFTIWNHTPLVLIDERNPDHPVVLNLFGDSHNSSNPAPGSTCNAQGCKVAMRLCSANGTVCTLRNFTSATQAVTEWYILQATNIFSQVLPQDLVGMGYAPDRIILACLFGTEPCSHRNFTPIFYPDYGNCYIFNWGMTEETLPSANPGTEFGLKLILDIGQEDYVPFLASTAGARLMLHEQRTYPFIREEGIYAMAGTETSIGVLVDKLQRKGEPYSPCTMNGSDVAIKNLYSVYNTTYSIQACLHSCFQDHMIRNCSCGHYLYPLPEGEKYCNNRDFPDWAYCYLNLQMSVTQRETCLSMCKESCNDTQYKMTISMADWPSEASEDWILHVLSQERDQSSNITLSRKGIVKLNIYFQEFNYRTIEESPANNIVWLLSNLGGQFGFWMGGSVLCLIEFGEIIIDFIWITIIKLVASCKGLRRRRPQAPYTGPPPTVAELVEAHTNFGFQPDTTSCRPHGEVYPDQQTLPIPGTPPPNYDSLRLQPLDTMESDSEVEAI
UniProt Q9WU39, whole entry: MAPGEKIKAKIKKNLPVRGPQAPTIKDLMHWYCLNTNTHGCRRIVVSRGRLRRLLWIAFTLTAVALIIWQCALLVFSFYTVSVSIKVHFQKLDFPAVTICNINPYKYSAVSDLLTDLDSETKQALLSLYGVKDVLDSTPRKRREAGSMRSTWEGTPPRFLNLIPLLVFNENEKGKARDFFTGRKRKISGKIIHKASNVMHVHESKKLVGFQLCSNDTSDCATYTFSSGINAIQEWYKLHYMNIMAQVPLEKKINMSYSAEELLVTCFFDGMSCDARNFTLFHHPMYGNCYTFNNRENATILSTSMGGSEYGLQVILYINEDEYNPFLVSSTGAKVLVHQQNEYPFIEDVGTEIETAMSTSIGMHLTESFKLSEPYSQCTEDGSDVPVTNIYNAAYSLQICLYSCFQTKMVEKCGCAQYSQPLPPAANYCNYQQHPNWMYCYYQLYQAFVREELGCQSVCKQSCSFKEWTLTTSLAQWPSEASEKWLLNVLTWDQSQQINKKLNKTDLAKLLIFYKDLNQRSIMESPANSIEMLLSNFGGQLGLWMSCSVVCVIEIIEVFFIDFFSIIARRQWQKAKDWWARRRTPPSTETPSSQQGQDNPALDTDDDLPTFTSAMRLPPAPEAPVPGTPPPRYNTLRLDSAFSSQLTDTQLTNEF

The structures given here were assigned with low confidence; some may be wrong.

In this experiment the target is epithelial sodium channel (ENaC) (Mus musculus, UniProt Q61180+Q9WU38+Q9WU39). As to the kind of experiment: Ussing chamber: inhibition of amiloride sensitive short circuit current (I_sc) in M-1 cells. The format is cell-based. The settings on record: Mouse kidney M-1 cells on transwell filters, Ussing chamber at 37° C., compound added to the apical solution.
Usually IC50 stands for the concentration at which inhibition is half-maximal. Read a low IC50 as greater potency. `CN(C)CCNC(=O)N1CCC(CNC(N)=NC(=O)c2nc(Cl)c(N)nc2N)(Cc2ccccc2)CC1` showed a concentration for half-maximal inhibition (IC50) of 29 nM.
As for `CC(C)(C)OC(=O)NCCC(=O)N1CCC(CNC(N)=NC(=O)c2nc(Cl)c(N)nc2N)(Cc2ccccc2)CC1`, the figure is 33 nM; as for `CN1CCC(CNC(N)=NC(=O)c2nc(Cl)c(N)nc2N)(Cc2ccccc2)CC1`, 89 nM.
As for `CC(C)(C)OC(=O)NCCNC(=O)N1CCC(CNC(N)=NC(=O)c2nc(Cl)c(N)nc2N)(Cc2ccccc2)CC1`, the figure is 11 nM; as for `CC(C)(C)OC(=O)N1CCC(CNC(N)=NC(=O)c2nc(Cl)c(N)nc2N)(Cc2ccccc2)CC1`, 61 nM; as for `CN1CCC(NC(=O)N2CCC(CCc3ccccc3)(CNC(N)=NC(=O)c3nc(Cl)c(N)nc3N)CC2)CC1`, 46 nM.
As for `CN(C)CCCNC(=O)N1CCC(CCc2ccccc2)(CNC(N)=NC(=O)c2nc(Cl)c(N)nc2N)CC1`, the figure is 23 nM.
